Drawing on PMC6763788, this text covers binding for six molecules.

Amino acid sequences for entries named in this document (tags omitted).
UniProt Q14999: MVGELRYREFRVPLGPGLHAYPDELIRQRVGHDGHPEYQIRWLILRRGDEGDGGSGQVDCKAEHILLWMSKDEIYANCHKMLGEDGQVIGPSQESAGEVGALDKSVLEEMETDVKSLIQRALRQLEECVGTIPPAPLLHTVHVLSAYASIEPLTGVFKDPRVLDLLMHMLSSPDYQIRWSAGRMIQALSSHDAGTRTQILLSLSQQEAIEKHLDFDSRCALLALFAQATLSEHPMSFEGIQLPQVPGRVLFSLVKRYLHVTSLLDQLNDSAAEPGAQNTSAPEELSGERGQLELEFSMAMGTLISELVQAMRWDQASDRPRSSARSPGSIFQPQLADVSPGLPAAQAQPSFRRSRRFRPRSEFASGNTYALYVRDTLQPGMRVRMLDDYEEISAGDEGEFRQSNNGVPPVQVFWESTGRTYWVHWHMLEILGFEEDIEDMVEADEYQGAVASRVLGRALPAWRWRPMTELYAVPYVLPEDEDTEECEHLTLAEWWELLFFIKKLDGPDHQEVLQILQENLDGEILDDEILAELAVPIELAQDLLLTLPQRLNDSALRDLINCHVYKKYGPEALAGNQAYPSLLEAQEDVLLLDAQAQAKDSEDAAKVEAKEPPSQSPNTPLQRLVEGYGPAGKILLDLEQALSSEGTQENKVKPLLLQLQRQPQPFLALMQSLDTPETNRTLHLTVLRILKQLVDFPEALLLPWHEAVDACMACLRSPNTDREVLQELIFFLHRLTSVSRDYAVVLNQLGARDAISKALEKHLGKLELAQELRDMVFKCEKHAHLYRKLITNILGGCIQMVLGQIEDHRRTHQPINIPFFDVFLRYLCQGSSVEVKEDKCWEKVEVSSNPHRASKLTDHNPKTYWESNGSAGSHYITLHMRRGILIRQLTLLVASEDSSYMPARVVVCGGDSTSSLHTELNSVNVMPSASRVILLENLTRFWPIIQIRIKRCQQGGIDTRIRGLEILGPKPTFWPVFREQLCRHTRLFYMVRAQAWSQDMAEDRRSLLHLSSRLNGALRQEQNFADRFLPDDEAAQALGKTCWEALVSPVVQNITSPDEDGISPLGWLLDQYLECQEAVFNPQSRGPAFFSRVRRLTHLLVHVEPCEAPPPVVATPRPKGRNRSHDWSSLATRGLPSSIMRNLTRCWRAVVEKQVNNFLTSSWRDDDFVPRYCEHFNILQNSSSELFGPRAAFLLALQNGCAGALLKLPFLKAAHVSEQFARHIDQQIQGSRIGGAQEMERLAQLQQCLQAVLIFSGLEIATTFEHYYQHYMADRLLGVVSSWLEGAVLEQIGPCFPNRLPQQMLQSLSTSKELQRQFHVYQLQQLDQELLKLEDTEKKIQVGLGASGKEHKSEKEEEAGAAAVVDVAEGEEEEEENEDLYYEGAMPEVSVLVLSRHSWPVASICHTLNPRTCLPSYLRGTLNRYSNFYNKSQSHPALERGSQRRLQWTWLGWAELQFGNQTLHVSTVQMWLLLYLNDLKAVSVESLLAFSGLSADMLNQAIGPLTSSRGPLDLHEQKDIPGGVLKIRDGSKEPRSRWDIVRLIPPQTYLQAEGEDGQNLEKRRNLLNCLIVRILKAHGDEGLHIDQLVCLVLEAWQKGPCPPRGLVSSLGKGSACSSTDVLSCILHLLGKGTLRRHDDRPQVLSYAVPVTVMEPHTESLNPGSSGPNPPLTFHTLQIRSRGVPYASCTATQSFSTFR
UniProt Q06330: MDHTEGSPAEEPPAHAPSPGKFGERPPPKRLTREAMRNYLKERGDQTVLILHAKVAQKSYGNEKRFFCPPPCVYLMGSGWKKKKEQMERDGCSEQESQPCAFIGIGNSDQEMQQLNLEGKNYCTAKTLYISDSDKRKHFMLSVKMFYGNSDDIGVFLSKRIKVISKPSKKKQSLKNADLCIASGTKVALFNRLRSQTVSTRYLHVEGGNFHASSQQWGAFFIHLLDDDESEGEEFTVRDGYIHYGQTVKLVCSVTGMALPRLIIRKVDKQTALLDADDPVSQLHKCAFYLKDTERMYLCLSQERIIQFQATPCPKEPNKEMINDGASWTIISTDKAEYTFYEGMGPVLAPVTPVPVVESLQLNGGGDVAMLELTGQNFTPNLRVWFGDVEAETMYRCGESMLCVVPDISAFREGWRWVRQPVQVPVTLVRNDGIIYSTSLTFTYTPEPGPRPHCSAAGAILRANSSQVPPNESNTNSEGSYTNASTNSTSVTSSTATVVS
UniProt Q9BQE3: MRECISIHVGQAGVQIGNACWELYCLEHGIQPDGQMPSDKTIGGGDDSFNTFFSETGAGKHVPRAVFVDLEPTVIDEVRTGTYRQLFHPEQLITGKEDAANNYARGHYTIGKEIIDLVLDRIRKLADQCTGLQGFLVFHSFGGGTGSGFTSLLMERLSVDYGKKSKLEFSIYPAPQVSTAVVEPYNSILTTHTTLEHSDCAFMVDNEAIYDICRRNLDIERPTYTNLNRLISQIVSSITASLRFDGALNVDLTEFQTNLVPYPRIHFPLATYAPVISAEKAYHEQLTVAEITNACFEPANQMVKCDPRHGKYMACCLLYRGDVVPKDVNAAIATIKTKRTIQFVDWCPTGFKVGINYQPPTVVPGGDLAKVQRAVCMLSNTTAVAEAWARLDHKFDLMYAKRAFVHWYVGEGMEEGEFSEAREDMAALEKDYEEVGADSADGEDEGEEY
UniProt Q13509: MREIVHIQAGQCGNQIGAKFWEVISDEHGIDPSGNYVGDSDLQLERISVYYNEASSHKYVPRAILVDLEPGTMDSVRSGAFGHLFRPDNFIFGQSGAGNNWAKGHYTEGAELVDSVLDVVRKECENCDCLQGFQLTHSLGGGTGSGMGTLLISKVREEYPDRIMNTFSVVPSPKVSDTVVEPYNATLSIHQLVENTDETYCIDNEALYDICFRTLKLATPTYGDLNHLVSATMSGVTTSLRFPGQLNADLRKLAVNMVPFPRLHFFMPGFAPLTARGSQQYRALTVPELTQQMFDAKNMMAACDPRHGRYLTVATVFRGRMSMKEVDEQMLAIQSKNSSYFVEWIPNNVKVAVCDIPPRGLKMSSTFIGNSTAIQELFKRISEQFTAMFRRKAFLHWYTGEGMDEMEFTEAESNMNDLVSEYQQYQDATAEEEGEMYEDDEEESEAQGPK
UniProt P12814: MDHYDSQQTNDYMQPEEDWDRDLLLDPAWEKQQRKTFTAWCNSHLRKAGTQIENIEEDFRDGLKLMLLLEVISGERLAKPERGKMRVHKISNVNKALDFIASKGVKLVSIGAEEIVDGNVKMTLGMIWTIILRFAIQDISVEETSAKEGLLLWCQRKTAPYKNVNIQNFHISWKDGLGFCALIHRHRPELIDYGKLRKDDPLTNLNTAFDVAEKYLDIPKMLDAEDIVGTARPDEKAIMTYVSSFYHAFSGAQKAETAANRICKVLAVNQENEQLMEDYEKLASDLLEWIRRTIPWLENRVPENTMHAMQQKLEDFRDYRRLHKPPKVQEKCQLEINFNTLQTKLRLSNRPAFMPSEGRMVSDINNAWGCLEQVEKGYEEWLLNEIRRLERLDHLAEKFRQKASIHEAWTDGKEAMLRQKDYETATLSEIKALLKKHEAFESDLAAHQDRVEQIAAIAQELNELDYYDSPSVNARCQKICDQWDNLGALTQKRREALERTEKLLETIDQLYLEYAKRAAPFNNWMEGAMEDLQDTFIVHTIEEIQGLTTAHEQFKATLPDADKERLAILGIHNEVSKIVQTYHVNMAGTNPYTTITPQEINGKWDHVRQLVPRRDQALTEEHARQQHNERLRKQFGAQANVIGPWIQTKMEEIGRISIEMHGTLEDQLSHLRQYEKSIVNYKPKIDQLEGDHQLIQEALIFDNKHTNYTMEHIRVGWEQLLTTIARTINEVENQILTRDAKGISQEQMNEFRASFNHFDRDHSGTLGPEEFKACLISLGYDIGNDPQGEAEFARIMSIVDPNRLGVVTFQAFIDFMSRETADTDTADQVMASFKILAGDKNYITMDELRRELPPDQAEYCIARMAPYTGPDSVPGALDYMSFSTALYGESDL

No constants are given. Whether binding was seen depends on the method and setting. In cells and extracts the contact can be indirect. Here binding means that the protein was enriched with, or labelled near, the bait; the list need not be complete. Tags and fused reporters may be left off the sequences shown.

B1: lipoma-preferred partner (LPP), endogenous in HEK293 (protein, UniProt Q93052 1-612)
chain: MSHPSWLPPKSTGEPLGHVPARMETTHSFGNPSISVSTQQPPKKFAPVVAPKPKYNPYKQPGGEGDFLPPPPPPLDDSSALPSISGNFPPPPPLDEEAFKVQGNPGGKTLEERRSSLDAEIDSLTSILADLECSSPYKPRPPQSSTGSTASPPVSTPVTGHKRMVIPNQPPLTATKKSTLKPQPAPQAGPIPVAPIGTLKPQPQPVPASYTTASTSSRPTFNVQVKSAQPSPHYMAAPSSGQIYGSGPQGYNTQPVPVSGQCPPPSTRGGMDYAYIPPPGLQPEPGYGYAPNQGRYYEGYYAAGPGYGGRNDSDPTYGQQGHPNTWKREPGYTPPGAGNQNPPGMYPVTGPKKTYITDPVSAPCAPPLQPKGGHSGQLGPSSVAPSFRPEDELEHLTKKMLYDMENPPADEYFGRCARCGENVVGEGTGCTAMDQVFHVDCFTCIICNNKLRGQPFYAVEKKAYCEPCYINTLEQCNVCSKPIMERILRATGKAYHPHCFTCVMCHRSLDGIPFTVDAGGLIHCIEDFHKKFAPRCSVCKEPIMPAPGQEETVRIVALDRDFHVHCYRCEDCGGLLSEGDNQGCYPLDGHILCKTCNSARIRVLTAKASTDL

The first assay addresses T1, hemagglutinin (HA)-tagged RITA (RBP-J-interacting and tubulin-associated protein) (UniProt Q96K30).
T1 sequence: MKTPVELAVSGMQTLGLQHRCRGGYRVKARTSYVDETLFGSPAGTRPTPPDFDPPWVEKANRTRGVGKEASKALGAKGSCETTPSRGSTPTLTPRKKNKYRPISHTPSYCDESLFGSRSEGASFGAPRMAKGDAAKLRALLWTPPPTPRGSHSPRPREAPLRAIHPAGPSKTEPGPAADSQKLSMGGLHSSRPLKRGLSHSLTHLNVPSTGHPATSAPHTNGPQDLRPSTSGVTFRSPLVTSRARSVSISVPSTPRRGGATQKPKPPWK
Put plainly: affinity purification with mass spectrometry; HEK293 cells transfected with HA-tagged RITA; anti-HA IP of lysates, HA peptide elution, LC-MS/MS on trypsinized immune complexes; CompPASS scoring (HCIP here: APSM >= 5 and WD^N >= 3).
For the molecule B1, the binding entry is “binds”.

Another assay addresses T1, hemagglutinin (HA)-tagged RITA (RBP-J-interacting and tubulin-associated protein). The description is as above. The source holds these as a separate data set.
For the molecule Cul7 (from UniProt Q14999 1-1698), the binding entry is given as “binds”. Turning to RBP-J (from UniProt Q06330 1-500), the binding result is “binds”. Same read-out and setting: to tubulin α1C (from UniProt Q9BQE3 1-449) belongs “binds”; to tubulin β3 (from UniProt Q13509 1-450), “binds”.

Turning to α-actinin 1 (from UniProt P12814 1-892), the binding entry is given as “binds”.
